Source: patent US20240076398A1
These are yes or no findings as the source states them, for the method shown. Some entries that bind do so weakly or less than the wild type.

Protein sequences, listed by entry. Tags and fused reporters are not part of them. Lines headed by an entry give the natural chain unless they say otherwise; changes in a name come on top.
UniProt P21730: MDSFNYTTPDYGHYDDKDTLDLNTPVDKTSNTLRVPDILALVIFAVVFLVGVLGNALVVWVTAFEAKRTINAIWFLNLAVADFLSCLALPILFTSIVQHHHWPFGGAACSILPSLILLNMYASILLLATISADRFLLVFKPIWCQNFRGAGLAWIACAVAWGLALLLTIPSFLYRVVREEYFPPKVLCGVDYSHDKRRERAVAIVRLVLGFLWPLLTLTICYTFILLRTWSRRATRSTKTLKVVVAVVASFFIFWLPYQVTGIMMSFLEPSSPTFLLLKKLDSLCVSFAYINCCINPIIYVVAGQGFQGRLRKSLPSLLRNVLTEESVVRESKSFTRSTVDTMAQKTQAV

What was measured:
[1] = biological target: biotinylated cyclic ECL2 peptide of C5aR1 (human); test: BLI, peptide on streptavidin sensor
[2] = biological target: biotinylated cyclic ECL2 peptide of C5aR1 (human); test: peptide epitope mapping
[3] = biological target: biotinylated N-terminal peptide of C5aR1 without tyrosine sulfation (human); test: BLI, peptide on streptavidin sensor
[4] = biological target: human C5aR1 (complement component 5a receptor 1) (human) (UniProt P21730); test: flow cytometry on human neutrophils, titration 10^-7.5 to 10^-12 M

Row | Binder | binding [1] | other results
1 | antibody 317 (antibody, V domains shown) VH: QVQLQQPGAELVMPGASVKLSCKASGYTFTSYWLHWVRQRPGQGLEWIGEIDPSDGYSNHNQKFKGKATLTVDKSSSTAYMQLSSLTSEDSAVYYCATEGFWGQGTTVTVSS VL: DIVMTQSPSSLSVSAGEKVTMSCKSSQSLLKSGNQKNYLAWHQQKPGQPPKLLIYGASTRESGVPDRFTGSGSGTDFTLTISSVQAEDLAVYYCQNDHSHPYTFGGGTKLEIK | binds | –
2 | Clone_329 (antibody, V domains shown) VH: QVQLQQSGAELTKPGASVKLSCKASGYTFTNYWMHWVKQRPGQGLEWIGYLNPSSGYTKYNQKFKDKATLTADKSSSTAYMQLNSLTYEDSAVYYCTRSGGDNYGNPYYFDRWGQGTTVTVSS VL: DVVMTQTPLSLTVSLGDQASISCRSSQSLVHSNGNTYLHWYLQKPGQSPKFLIYKVSNRFSGVPDRFSGSGSGTDFRLKISRVEAEDLGVYFCSQSTLVPLTFGAGTKLEIK | binds | binding [2]: binds
3 | Clone_336_V2-1 (antibody, V domains shown) VH: QVQLKQSGPGLVQSSQSLSITCTVSGFSLISYGVHWVRQSPGKGLEWLGVIWSGGSTDYNAAFKSRLSITKDNSKSQVFFKMNSLQADDTAIYYCAKNSQLGNAMDYWGQGTTVTVSS VL: DIVMSQSPSSLAVSAGEKVTMSCKSSQSLLSSRTRKNYLAWYQQKPGQSPKLLIYWASTRESGVPDRFTGSGSGTDFTLTISSVQAEDLALYFCNQSYDLLTFGAGTKLEIK | binds | –
4 | antibody 343 (antibody, V domains shown) VH: QVQLQQSGAELVKPGASVKLSCKASGYTFTEYTIHWVNQRSGQGLEWIGWFYPGSGSIKYNEKFKDKATLTADKSSHTVYMELSRLTSEDSAVYFCARHGNYYDGSWFAYWGQGTLVTVSA VL: DVQITQSPSYLAASPGETITINCRASKSISKYLAWYQEKPGKTNKLLIYSGSTLQSGIPSRFSGSGSGTDFTLTISSLEPEDFAMYYCQQHDEYPWTFGGGTKLEIK | binds | –
5 | Clone_402 (antibody, V domains shown) VH: QIQLVQSGPELKKPGETVKISCKASGYTFTTFGMSWVKQAPGKGLKWMGWINTNSGMPTYTDDFRGRFAFSLETSASTAYLQISSLKNEDTATYFCARKSLFYWGQGTTLTVSS VL: DVVMTQSPLTLSVTIGQPASISCRSSRSLLDSDGKTKLHWLLQRPGQSPKSLIYLVSKLDSGVPNRFTGGGSGTDFTLKINRVEAEDLGVYYCWQGTHFPWTFGVGTKLEIK | – | binding [3]: binds
6 | Clone_453 (antibody, V domains shown) VH: QVQLKQSGPGQVAPSQSLSITCTVSGFSLINSAVHWVRQSPGKGLEWLGVIWSDGSTDYNTAFISRLSISRDNSKSQVFFKMRSLQVDDTAVYYCARNGRLGNAMDYWGQGTSVTVSS VL: DIVMTQSPSSLAVSVGEKVTMSCKSSQSLFSSRTRKNYLAWYQQKPGQSPKLLIYWASTRESGVPYRFTGSGSGTDFTLTISSVQTEDLAVYYCKQSYNLLTFGAGTKLEL | binds | –
7 | Clone_511 (antibody, V domains shown) VH: QVQLQQSGAELAKPGASVKLSCKTSGYTFTNYWMHWIKQRPGLGLEWIGYINPSGDYTKHNQKFKDKATLTADRSSSTAYMQLSSLTYEDSAVYYCARVPLSYGSGNGPYYFDYWGQGTTLTVSS VL: DVVMTQTPLSLPVSLGDHASISCRSSQSLVHSNGNIYLHWYLQRPGQSPKLLIHKVSNRFSGVPDRFSGSGSGTDFTLKISRVEAEDVGIYFCSQSTLVPLTFGSGTKLELK | binds | –
8 | Clone_518 (antibody, V domains shown) VH: QVQLQQSGAELAKPGASVKLSCKTSGYTFTNYWMHWIKQRPGLGLEWIGYINPSGDYTKHNQKFKDKATLTADRSSSTAYMQLSSLTYEDSAVYYCARVPLSYGSGNGPYYFDYWGQGTTLTVSS VL: DVVMTQTPLSLPVSLGDHASISCRSSQSLVHSNGNTYLHWYLQRPGQSPKLLIHKVSNRFSGVPDRFSGSGSGTDFTLKISRVEAEDVGIYFCSQSTLVPLTFGSGTKLELK | binds | –
9 | Clone_583 (antibody, V domains shown) VH: EVQLVESGGGLVKPGGSLKLSCAASGFTFNAYAMSWVRQTPEKRLEWVASISTGGNTYCPDSVKDRFTVSRDNVRNILYLQMSSLRSEDTAMYYCTRGYQRFSGFAYWGQGTLVTVS VL: DVVMTQTPLSPPVSLGYQASISCRSSQSLVHSNGNTYLNWYLQKPGQSPKLLIYKVSNRLSGVPDRFSGSGSGTDFTLKISRVETEDLGVYFCSQSTHVPYTFGGGTKLEIK | – | binding [3]: binds
10 | Clone_584 (antibody, V domains shown) VH: DVQLQESGPDLVKPSQSLSLTCTVTGYSITSGYSWHWIRQSPGNKLEWLAYIHNSGSTNYNPSLKSRISITRDTSKNQFFLKLNSVTTEDTATYYCARSIGDYWGQGTTLAVSS VL: DVVMTQTPLSLPVSLGDRASISCRSGQSLVHSNGNTYLHWYLQRPGRSPNLLIYKVSNRFSGVPDRFSGSGSGTDFTLKISRVEAEDLGVYFCSQSTHVPWTFGGGTKLEIK | binds | –
11 | Clone_588 (antibody, V domains shown) VH: DVQLQESGPGLVKPSQSLSLTCTVTGYSITSDYAWNWIRQFPGNKLEWMGYISYSGSIRYNPSLKSRISITRDTSKNQFFLQLNSVTTEDTATYYCAITTGGYFDYWGQGTTLTVSS VL: DIQMTQSTSSLSASLGDRVTISCRASQDISNYLNWYQQTPDGTVKLLIYQISRLHSGVPSRFSGSGSGTDYSLTISNLEEEDIANYFCQQGNSLPPTFGGGTKVEIK | binds | –
12 | Clone_66 (antibody, V domains shown) VH: QVQLQQSDAELVKPGASVKISCKASGYTFIDHAIHWVKQRPEQGLEWIGYISPGNGEIKYNEKFKAKATLTADKSSSAAYMQLNSLTSADSAVYFCKRALFYYTGKYQPMDYWGQGTTVTDSS VL: DIVMTQSQKFMSTTAGDRVSITCKASQNVGSAVVWYQQKPGRSPKLLIYSSSIRYTGVPDRFTGSGSGTDFTLTINSVQSEDLADYFCQQYNSFPLTFGAGTKLEIK | – | binding [4]: binds
